This note sets out measurements from publication PMC5580921, “Homeodomain-like DNA binding proteins control the haploid-to-diploid transition in Dictyostelium”.

The target in the series is T1, MatA (Dictyostelium discoideum) (UniProt Q54HW9).
T1 sequence (looked up, limits assumed): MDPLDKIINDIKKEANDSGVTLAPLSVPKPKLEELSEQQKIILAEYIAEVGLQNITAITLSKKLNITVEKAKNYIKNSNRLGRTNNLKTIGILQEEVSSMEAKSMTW
Put plainly: NMR. Conditions: 80 uM DNA, 20 uM MatA, CSPs grow with DNA length, NMR: 25 mM phosphate pH 6, 50 mM NaCl, 50 uM EDTA, 5% D2O, 25 C (MatB S71A at 1 C), recombinant protein.

Construct, isoform or probe ends are uncertain for at least one entry. At least one verdict rests on a figure or table, not on a statement of the authors. Where a protein sequence is shown, tags need not be part of it.

In the case of “CCGAAACGTTTGGTGGCGGGA (double strand) [21-bp DNA]”, the binding result is “binds”. For “CGTTTGGTGGCGGGA (double strand) [15-bp DNA]”, the binding result (shortest DNA) was “binds”.
